# In the supplement of paper PMC6411743:
# ± gives the standard deviation of the averaged measurements. The entries are a selection whose mix differs from that of the whole data set.
# How the values were obtained:
# Experiment in all cases: NP40-soluble protein abundance relative to vehicle (solubility fold change) (ratio); higher = more soluble protein in presence of AMP-PNP
# [1] = molecular target: T1, UniProt Q9H0G5
# T1 sequence (whole entry): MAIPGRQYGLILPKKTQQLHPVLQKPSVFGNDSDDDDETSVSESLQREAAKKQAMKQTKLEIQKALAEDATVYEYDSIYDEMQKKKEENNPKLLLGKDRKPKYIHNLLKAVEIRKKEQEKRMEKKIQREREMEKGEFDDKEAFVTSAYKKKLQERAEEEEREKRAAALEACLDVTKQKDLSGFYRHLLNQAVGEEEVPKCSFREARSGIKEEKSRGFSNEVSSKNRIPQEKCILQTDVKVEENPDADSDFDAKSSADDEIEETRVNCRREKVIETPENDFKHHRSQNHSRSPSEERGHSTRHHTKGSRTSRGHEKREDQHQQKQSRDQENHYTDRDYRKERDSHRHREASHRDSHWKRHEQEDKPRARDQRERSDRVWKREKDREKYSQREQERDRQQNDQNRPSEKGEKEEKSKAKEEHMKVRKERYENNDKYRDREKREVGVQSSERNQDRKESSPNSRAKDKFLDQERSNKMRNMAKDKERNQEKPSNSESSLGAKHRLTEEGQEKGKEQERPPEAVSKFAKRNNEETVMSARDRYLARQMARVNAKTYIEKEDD
# Outline: (§1)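 Jurkat crude lysate prepared with a Dounce homogeniser was treated at eight concentrations spanning 0.1 to 10 mM, 10 min at room temperature then 3 min at 37 °C. Solubilisation with 0.8% NP40 and benzonase and ultracentrifugation preceded TMT labelling of the supernatant for LC-MS/MS. Fold change against the detergent-processed vehicle was determined per replicate from vsn-normalised intensities, across three independent experiments.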
# [2] = molecular target: T2, UniProt Q9H0X4
# T2 sequence (whole entry): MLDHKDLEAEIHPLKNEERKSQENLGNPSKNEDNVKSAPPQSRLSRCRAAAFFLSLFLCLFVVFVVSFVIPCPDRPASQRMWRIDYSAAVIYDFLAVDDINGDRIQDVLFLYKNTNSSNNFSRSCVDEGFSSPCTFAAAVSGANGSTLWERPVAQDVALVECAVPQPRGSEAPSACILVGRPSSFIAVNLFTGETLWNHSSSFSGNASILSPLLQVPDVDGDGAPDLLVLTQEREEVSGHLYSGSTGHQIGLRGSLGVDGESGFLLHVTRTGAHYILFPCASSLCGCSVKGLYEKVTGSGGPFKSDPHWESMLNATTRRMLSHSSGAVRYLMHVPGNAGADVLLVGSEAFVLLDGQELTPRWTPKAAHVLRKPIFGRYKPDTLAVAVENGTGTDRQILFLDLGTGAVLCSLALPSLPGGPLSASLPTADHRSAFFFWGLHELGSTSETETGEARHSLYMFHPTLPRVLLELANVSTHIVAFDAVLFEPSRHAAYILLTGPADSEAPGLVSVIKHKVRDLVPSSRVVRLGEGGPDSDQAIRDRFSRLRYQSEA
# Outline: as §1
# [3] = molecular target: T3, UniProt Q9H270 and related entries
# T3 sequence (whole entry): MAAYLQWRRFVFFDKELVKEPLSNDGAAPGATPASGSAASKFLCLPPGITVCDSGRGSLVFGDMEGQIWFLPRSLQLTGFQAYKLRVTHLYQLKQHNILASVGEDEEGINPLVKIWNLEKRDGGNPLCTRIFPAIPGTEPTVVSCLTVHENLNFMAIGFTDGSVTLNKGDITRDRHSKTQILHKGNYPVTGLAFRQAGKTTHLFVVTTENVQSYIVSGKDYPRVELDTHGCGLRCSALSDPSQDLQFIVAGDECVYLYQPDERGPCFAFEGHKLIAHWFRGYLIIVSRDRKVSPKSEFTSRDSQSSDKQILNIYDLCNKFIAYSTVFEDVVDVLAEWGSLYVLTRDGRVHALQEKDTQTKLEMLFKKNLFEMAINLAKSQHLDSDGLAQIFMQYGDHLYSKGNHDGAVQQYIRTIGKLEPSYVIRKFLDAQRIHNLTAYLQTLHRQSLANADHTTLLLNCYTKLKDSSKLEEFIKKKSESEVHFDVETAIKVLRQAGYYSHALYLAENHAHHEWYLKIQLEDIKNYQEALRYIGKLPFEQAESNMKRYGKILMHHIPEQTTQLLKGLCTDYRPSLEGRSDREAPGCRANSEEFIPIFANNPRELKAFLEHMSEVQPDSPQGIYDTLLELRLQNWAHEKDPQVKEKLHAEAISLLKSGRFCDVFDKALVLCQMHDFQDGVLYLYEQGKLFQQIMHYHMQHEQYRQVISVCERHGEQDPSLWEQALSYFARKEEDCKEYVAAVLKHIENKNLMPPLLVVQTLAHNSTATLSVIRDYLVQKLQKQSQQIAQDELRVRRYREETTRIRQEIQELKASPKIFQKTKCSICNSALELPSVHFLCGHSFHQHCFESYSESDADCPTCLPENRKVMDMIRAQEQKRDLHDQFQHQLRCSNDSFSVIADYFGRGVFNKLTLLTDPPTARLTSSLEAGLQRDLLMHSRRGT
# Outline: as §1
# [4] = molecular target: T4, UniProt Q9H300 and related entries
# T4 sequence (whole entry): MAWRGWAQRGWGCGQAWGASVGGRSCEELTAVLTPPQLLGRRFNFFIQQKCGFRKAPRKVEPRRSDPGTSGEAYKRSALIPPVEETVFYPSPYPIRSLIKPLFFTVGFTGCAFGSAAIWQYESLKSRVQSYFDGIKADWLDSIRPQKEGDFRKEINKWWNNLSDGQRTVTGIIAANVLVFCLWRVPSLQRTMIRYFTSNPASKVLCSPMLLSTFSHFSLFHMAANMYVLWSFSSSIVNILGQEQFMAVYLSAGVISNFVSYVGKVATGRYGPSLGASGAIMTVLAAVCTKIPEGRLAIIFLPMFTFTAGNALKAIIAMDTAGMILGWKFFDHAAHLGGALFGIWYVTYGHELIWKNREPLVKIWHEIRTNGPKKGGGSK
# Outline: as §1
# [5] = molecular target: T5, UniProt Q9H4L7 and related entries
# T5 sequence (whole entry): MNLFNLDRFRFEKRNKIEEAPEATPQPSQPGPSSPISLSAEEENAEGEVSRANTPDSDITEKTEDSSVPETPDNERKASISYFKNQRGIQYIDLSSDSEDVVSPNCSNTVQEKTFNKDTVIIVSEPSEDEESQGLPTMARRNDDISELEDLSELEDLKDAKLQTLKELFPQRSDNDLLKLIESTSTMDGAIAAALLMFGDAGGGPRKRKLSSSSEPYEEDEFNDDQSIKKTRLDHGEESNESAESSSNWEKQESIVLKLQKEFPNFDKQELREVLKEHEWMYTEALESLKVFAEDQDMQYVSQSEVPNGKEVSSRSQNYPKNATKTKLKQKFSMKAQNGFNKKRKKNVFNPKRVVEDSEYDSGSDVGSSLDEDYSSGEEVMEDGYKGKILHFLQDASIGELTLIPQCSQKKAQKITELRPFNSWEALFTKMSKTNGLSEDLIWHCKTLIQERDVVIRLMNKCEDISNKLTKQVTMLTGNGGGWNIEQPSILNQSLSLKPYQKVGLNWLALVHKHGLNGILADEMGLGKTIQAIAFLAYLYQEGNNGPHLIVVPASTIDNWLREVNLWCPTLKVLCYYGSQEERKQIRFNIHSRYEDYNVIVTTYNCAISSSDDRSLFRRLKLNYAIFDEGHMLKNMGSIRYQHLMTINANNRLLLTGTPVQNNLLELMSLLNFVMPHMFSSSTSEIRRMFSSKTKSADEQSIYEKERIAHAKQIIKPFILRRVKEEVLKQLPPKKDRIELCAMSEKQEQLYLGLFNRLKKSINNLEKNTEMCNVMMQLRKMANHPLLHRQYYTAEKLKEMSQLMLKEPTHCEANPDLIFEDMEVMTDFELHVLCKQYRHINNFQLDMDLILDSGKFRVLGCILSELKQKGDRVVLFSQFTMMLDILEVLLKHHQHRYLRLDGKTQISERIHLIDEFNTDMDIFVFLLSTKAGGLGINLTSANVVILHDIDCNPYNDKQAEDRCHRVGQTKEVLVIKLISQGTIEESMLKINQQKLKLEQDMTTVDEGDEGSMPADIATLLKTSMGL
# Outline: as §1
structure (smiles),measurement,setting,value
Nc1ncnc2c1ncn2[C@@H]1O[C@H](COP(=O)(O)OP(=O)(O)NP(=O)(O)O)[C@@H](O)[C@H]1O [adenylyl imidodiphosphate],NP40-soluble protein abundance,[1]; concentration: 1mM,1.04 ± 0.016
same,NP40-soluble protein abundance,[1]; concentration: 2mM,1.1 ± 0.033
same,NP40-soluble protein abundance,[1]; concentration: 4mM,1.06 ± 0.051
same,NP40-soluble protein abundance,[1]; concentration: 6mM,1.02 ± 0.046
same,NP40-soluble protein abundance,[1]; concentration: 8mM,1.03 ± 0.012
same,NP40-soluble protein abundance,[1]; concentration: 10mM,1.09 ± 0.038
same,NP40-soluble protein abundance,[2]; concentration: 1mM,0.955 ± 0.05
same,NP40-soluble protein abundance,[2]; concentration: 2mM,0.997 ± 0.049
same,NP40-soluble protein abundance,[2]; concentration: 4mM,0.97 ± 0.03
same,NP40-soluble protein abundance,[2]; concentration: 6mM,0.994 ± 0.051
same,NP40-soluble protein abundance,[2]; concentration: 8mM,0.965 ± 0.043
same,NP40-soluble protein abundance,[2]; concentration: 10mM,0.958 ± 0.043
same,NP40-soluble protein abundance,[3]; concentration: 1mM,1.003 ± 0.0068
same,NP40-soluble protein abundance,[3]; concentration: 2mM,0.93 ± 0.087
same,NP40-soluble protein abundance,[3]; concentration: 4mM,0.995 ± 0.016
same,NP40-soluble protein abundance,[3]; concentration: 6mM,0.9627 ± 0.0063
same,NP40-soluble protein abundance,[3]; concentration: 8mM,0.9847 ± 0.0026
same,NP40-soluble protein abundance,[3]; concentration: 10mM,0.953 ± 0.046
same,NP40-soluble protein abundance,[4]; concentration: 1mM,1.07 ± 0.05
same,NP40-soluble protein abundance,[4]; concentration: 2mM,1.12 ± 0.075
same,NP40-soluble protein abundance,[4]; concentration: 4mM,1.05 ± 0.071
same,NP40-soluble protein abundance,[4]; concentration: 6mM,1.08 ± 0.029
same,NP40-soluble protein abundance,[4]; concentration: 8mM,1.04 ± 0.029
same,NP40-soluble protein abundance,[4]; concentration: 10mM,1.12 ± 0.067
same,NP40-soluble protein abundance,[5]; concentration: 1mM,0.983 ± 0.011
same,NP40-soluble protein abundance,[5]; concentration: 2mM,0.981 ± 0.027
same,NP40-soluble protein abundance,[5]; concentration: 4mM,0.954 ± 0.017
same,NP40-soluble protein abundance,[5]; concentration: 6mM,0.953 ± 0.015
same,NP40-soluble protein abundance,[5]; concentration: 8mM,0.9284 ± 0.0016
same,NP40-soluble protein abundance,[5]; concentration: 10mM,0.929 ± 0.017

# Reformatted: results already given
structure (smiles) | measurement | setting | value
Nc1ncnc2c1ncn2[C@@H]1O[C@H](COP(=O)(O)OP(=O)(O)NP(=O)(O)O)[C@@H](O)[C@H]1O [adenylyl imidodiphosphate] | NP40-soluble protein abundance | [3]; concentration: 4mM | 0.995 ± 0.016
same | NP40-soluble protein abundance | [4]; concentration: 8mM | 1.04 ± 0.029
